Where a name gives a salt, the structure may show the parent alone. Some of these results come from one statement about several compounds together.
Target: T1, human neutrophil elastase (HNE) (Homo sapiens, UniProt P08246)
T1 sequence (P08246 30-267): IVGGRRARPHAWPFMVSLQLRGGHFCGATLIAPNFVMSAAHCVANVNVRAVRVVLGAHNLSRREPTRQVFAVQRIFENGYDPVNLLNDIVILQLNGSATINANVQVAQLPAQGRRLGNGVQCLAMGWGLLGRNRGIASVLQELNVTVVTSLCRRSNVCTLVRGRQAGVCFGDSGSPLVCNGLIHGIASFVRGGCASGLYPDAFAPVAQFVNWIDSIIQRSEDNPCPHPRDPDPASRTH
Assay: HNE Enzyme Assay
Assay type: biochemical
Settings: human leukocyte elastase, substrate MeOSuc-Ala-Ala-Pro-Val-AMC 100 μM, 25° C., 30 minutes, pH 7.5; read-out: HNE inhibition

Structure (SMILES) | IC50
COC(=O)C1=C(C)N(c2cccc(C(F)(F)F)c2)c2n[nH]c(=O)n2[C@@H]1c1ccc(C#N)cc1CC[n+]1ccn(-c2ccc(O)cc2)c1 [Example 35, 1-(2-{5-Cyano-2-[(R)-6-methoxycarbonyl-7-methyl-3-oxo-8-(3-trifluoromethyl-phenyl)-2,3,5,8-tetrahydro-[1,2,4]triazolo[4,3a]pyrimidin-5-yl]-phenyl}-ethyl)-3-(4-hydroxy-phenyl)-3H-imidazol-1-ium bromide] | < 20 nM
COC(=O)C1=C(C)N(c2cccc(C(F)(F)F)c2)c2n[nH]c(=O)n2[C@@H]1c1ccc(C#N)cc1CC[N+](C)(C)Cc1ccn(C)n1 [Example 11, (2-{5-Cyano-2-[(R)-6-methoxycarbonyl-7-methyl-3-oxo-8-(3-trifluoromethyl-phenyl)-2,3,5,8-tetrahydro[1,2,4]triazolo[4,3 a]pyrimidin-5-yl]-phenyl}-ethyl)-dimethyl-(1-methyl-1H-pyrazol-3-ylmethyl)-ammonium chloride] | < 20 nM
COC(=O)C1=C(C)N(c2cccc(C(F)(F)F)c2)c2n[nH]c(=O)n2[C@@H]1c1ccc(C#N)cc1CC[N+](C)(C)Cc1nccn1C [Example 17, (2-{5-Cyano-2-[(R)-6-methoxycarbonyl-7-methyl-3-oxo-8-(3-trifluoromethyl-phenyl)-2,3,5,8-tetrahydro-[1,2,4]triazolo[4,3a]pyrimidin-5-yl]-phenyl}-ethyl)-dimethyl-(1-methyl-1H-imidazol-2-ylmethyl)-ammonium chloride] | < 20 nM
COC(=O)C1=C(C)N(c2cccc(C(F)(F)F)c2)c2n[nH]c(=O)n2[C@@H]1c1ccc(C#N)cc1CC[N+](C)(C)Cc1cc(C)nn1C [Example 19, (2-{5-Cyano-2-[(R)-6-methoxycarbonyl-7-methyl-3-oxo-8-(3-trifluoromethyl-phenyl)-2,3,5,8-tetrahydro-[1,2,4]triazolo[4,3a]pyrimidin-5-yl]-phenyl}-ethyl)-(2,5-dimethyl-2H-pyrazol-3-ylmethyl)-dimethyl-ammonium chloride] | < 20 nM
COC(=O)C1=C(C)N(c2cccc(C(F)(F)F)c2)c2n[nH]c(=O)n2[C@@H]1c1ccc(C#N)cc1CC[N+](C)(C)Cc1nccc2ccccc12 [Example 26, (2-{5-Cyano-2-[(R)-6-methoxycarbonyl-7-methyl-3-oxo-8-(3-trifluoromethyl-phenyl)-2,3,5,8-tetrahydro-[1,2,4]triazolo[4,3a]pyrimidin-5-yl]-phenyl}-ethyl)-isoquinolin-1-ylmethyl-dimethyl-ammonium bromide] | < 20 nM
COC(=O)C1=C(C)N(c2cccc(C(F)(F)F)c2)c2n[nH]c(=O)n2[C@@H]1c1ccc(C#N)cc1CC[N+](C)(C)Cc1nnc(C)s1 [Example 21, (2-{5-Cyano-2-[(R)-6-methoxycarbonyl-7-methyl-3-oxo-8-(3-trifluoromethyl-phenyl)-2,3,5,8-tetrahydro-[1,2,4]triazolo[4,3a]pyrimidin-5-yl]-phenyl}-ethyl)-dimethyl-(5-methyl [1,3,4]thiadiazol-2-ylmethyl)-ammonium chloride] | < 20 nM
COC(=O)C1=C(C)N(c2cccc(C(F)(F)F)c2)c2n[nH]c(=O)n2[C@@H]1c1ccc(C#N)cc1CC[N+](C)(C)Cc1ncccn1 [Example 12, (2-{5-Cyano-2-[(R)-6-methoxycarbonyl-7-methyl-3-oxo-8-(3-trifluoromethyl-phenyl)-2,3,5,8-tetrahydro-[1,2,4]triazolo[4,3a]pyrimidin-5-yl]-phenyl}-ethyl)-dimethyl-pyrimidin-2-ylmethyl-ammonium chloride] | < 20 nM
COC(=O)C1=C(C)N(c2cccc(C(F)(F)F)c2)c2n[nH]c(=O)n2[C@@H]1c1ccc(C#N)cc1CC[n+]1ccn(CCCO)c1 [Example 30, 1-(2-{5-Cyano-2-[(R)-6-methoxycarbonyl-7-methyl-3-oxo-8-(3-trifluoromethyl-phenyl)-2,3,5,8-tetrahydro-[1,2,4]triazolo[4,3-a]pyrimidin-5-yl]-phenyl}-ethyl)-3-(3-hydroxy-propyl)-3H-imidazol-1-ium bromide] | < 20 nM
COC(=O)C1=C(C)N(c2cccc(C(F)(F)F)c2)c2n[nH]c(=O)n2[C@@H]1c1ccc(C#N)cc1CC[n+]1ccn(CCO)c1 [Example 5, 1-(2-{5-Cyano-2-[(R)-6-methoxycarbonyl-7-methyl-3-oxo-8-(3-trifluoromethyl-phenyl)-2,3,5,8-tetrahydro-[1,2,4]triazolo[4,3-a]pyrimidin-5-yl]-phenyl}-ethyl)-3-(2-hydroxy-ethyl)-3H-imidazol-1-ium formate] | < 20 nM
COC(=O)C1=C(C)N(c2cccc(C(F)(F)F)c2)c2n[nH]c(=O)n2[C@@H]1c1ccc(C#N)cc1CC[N+](C)(C)Cc1cccnc1 [Example 9, (2-{5-Cyano-2-[(R)-6-methoxycarbonyl-7-methyl-3-oxo-8-(3-trifluoromethyl-phenyl)-2,3,5,8-tetrahydro [1,2,4]triazolo[4,3a]pyrimidin-5-yl]-phenyl}-ethyl)dimethyl-pyridin-3-ylmethyl-ammonium formate] | < 20 nM
COC(=O)C1=C(C)N(c2cccc(C(F)(F)F)c2)c2n[nH]c(=O)n2[C@@H]1c1ccc(C#N)cc1CC[n+]1ccn(-c2ccccc2)c1 [Example 34, 1-(2-{5-Cyano-2-[(R)-6-methoxycarbonyl-7-methyl-3-oxo-8-(3-trifluoromethyl-phenyl)-2,3,5,8-tetrahydro-[1,2,4]triazolo[4,3-a]pyrimidin-5-yl]-phenyl}-ethyl)-3-phenyl-3H-imidazol-1-ium bromide] | < 20 nM
COC(=O)C1=C(C)N(c2cccc(C(F)(F)F)c2)c2n[nH]c(=O)n2[C@@H]1c1ccc(C#N)cc1CC[n+]1ccn(C)c1 [Example 3, 1-(2-{5-Cyano-2-[(R)-6-methoxycarbonyl-7-methyl-3-oxo-8-(3-trifluoromethyl-phenyl)-2,3,5,8-tetrahydro-[1,2,4]triazolo[4,3-a]pyrimidin-5-yl]-phenyl}-ethyl)-3-methyl-3H-imidazol-1-ium formate] | < 20 nM
COC(=O)C1=C(C)N(c2cccc(C(F)(F)F)c2)c2n[nH]c(=O)n2[C@@H]1c1ccc(C#N)cc1CC[n+]1ccn(C)c1CO [Example 31, 1-(2-{5-Cyano-2-[(R)-6-methoxycarbonyl-7-methyl-3-oxo-8-(3-trifluoromethyl-phenyl)-2,3,5,8-tetrahydro-[1,2,4]triazolo[4,3-a]pyrimidin-5-yl]phenyl}-ethyl)-2-hydroxymethyl-3-methyl-3H-imidazol-1-ium bromide] | < 20 nM
COC(=O)C1=C(C)N(c2cccc(C(F)(F)F)c2)c2n[nH]c(=O)n2[C@@H]1c1ccc(C#N)cc1C[N+](C)(C)Cc1cn(C)cn1 [Example 2, {5-Cyano-2-[(R)-6-methoxycarbonyl-7-methyl-3-oxo-8-(3-trifluoromethyl-phenyl)-2,3,5,8-tetrahydro-[1,2,4]triazolo[4,3-a]pyrimidin-5-yl]-benzyl}-dimethyl-(1-methyl-1H-imidazol-4-ylmethyl)-ammonium formate] | < 20 nM
COC(=O)C1=C(C)N(c2cccc(C(F)(F)F)c2)c2n[nH]c(=O)n2[C@@H]1c1ccc(C#N)cc1CC[n+]1ccn(C)c1C [Example 29, 1-(2-{5-Cyano-2-[(R)-6-methoxycarbonyl-7-methyl-3-oxo-8-(3-trifluoromethyl-phenyl)-2,3,5,8-tetrahydro-[1,2,4]triazolo[4,3-a]pyrimidin-5-yl]-phenyl}-ethyl)-2,3-dimethyl-3H-imidazol-1-ium bromide] | < 20 nM
COC(=O)C1=C(C)N(c2cccc(C(F)(F)F)c2)c2n[nH]c(=O)n2[C@@H]1c1ccc(C#N)cc1CC[n+]1ccn(Cc2ccccc2)c1 [Example 33, 3-Benzyl-1-(2-{5-cyano-2-[(R)-6-methoxycarbonyl-7-methyl-3-oxo-8-(3-trifluoromethyl-phenyl)-2,3,5,8-tetrahydro-[1,2,4]triazolo[4,3a]pyrimidin-5-yl]-phenyl}-ethyl)-3H-imidazol-1-ium bromide] | < 20 nM
CCn1cc[n+](CCc2cc(C#N)ccc2[C@@H]2C(C(=O)OC)=C(C)N(c3cccc(C(F)(F)F)c3)c3n[nH]c(=O)n32)c1 [Example 4, 1-(2-{5-Cyano-2-[(R)-6-methoxycarbonyl-7-methyl-3-oxo-8-(3-trifluoromethyl-phenyl)-2,3,5,8-tetrahydro-[1,2,4]triazolo[4,3-a]pyrimidin-5-yl]-phenyl}-ethyl)-3-ethyl-3H-imidazol-1-ium formate] | < 20 nM
COC(=O)C1=C(C)N(c2cccc(C(F)(F)F)c2)c2n[nH]c(=O)n2[C@@H]1c1ccc(C#N)cc1C[N+](C)(C)Cc1ccccn1 [Example 6, {5-Cyano-2-[(R)-6-methoxycarbonyl-7-methyl-3-oxo-8-(3-trifluoromethyl-phenyl)-2,3,5,8-tetrahydro-[1,2,4]triazolo[4,3-a]pyrimidin-5-yl]-benzyl}-dimethyl-pyridin-2-ylmethyl-ammonium formate] | < 20 nM
COC(=O)C1=C(C)N(c2cccc(C(F)(F)F)c2)c2n[nH]c(=O)n2[C@@H]1c1ccc(C#N)cc1CC[N+](C)(C)Cc1cccc2cccnc12 [Example 25, (2-{5-Cyano-2-[(R)-6-methoxycarbonyl-7-methyl-3-oxo-8-(3-trifluoromethyl-phenyl)-2,3,5,8-tetrahydro-[1,2,4]triazolo[4,3a]pyrimidin-5-yl]-phenyl}-ethyl)-dimethyl-quinolin-8-yl methyl-ammonium bromide] | < 20 nM
COC(=O)C1=C(C)N(c2cccc(C(F)(F)F)c2)c2n[nH]c(=O)n2[C@@H]1c1ccc(C#N)cc1C[N+](C)(C)Cc1cscn1 [Example 1, {5-Cyano-2-[(R)-6-methoxycarbonyl-7-methyl-3-oxo-8-(3-trifluoromethyl-phenyl)-2,3,5,8-tetrahydro-[1,2,4]triazolo[4,3-a]pyrimidin-5-yl]-benzyl}-dimethyl-thiazol-4-ylmethyl-ammonium formate] | < 20 nM
